PubChem BioAssay AID1259405 | NCATS, 2018
Here is an unselected part of about 50,000 reagents tested. In the full data, about 4,000 (8%) got an active call. 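Mouse siRNA library applied to hamster cells; one well for each siRNA.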 The numbers tell different reagents against one gene apart. Reagent sequences are not shown.

Screen: 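Silenced genes that increase secreted GFP made by CHO cells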 (primary screen)
System: Chinese hamster CHO-K1 ovary cells with stable secreted eGFP expression
Knock-down reagent: single siRNA against mouse genes, 0.8 pmol siRNA per well (2 µl of 400 nM stock)
Timing: 3 days
Measurement: 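Percent of the per-plate non-targeting control median for intracellular GFP per well by laser scanning cytometry and for cell viability by ATP luminescence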
Reading the numbers: GFP, % of control: higher = more GFP per well, higher productivity; viability (ATP), % of control: higher = more viable cells (more ATP)
Hit rule: 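a knock-down is called active if GFP reaches 120% or more of non-targeting control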

The opening 3 records as a preview:
| Gene | reagent | GFP, % of control | viability (ATP), % of control | activity call |
| --- | --- | --- | --- | --- |
| Ar | 1 | 43.7 | 52.6 | inactive |
| Ar | 2 | 84.5 | 75.4 | inactive |
| Ar | 3 | 120 | 43.8 | active |

Results, from the start:
| Gene | reagent | GFP, % of control | viability (ATP), % of control | activity call |
| --- | --- | --- | --- | --- |
| Ar | 1 | 43.7 | 52.6 | inactive |
| Ar | 2 | 84.5 | 75.4 | inactive |
| Ar | 3 | 120 | 43.8 | active |
| F2rl2 | 1 | 73.5 | 94.4 | inactive |
| F2rl2 | 2 | 55.3 | 74.3 | inactive |
| F2rl2 | 3 | 53.6 | 60.6 | inactive |
| Brsk2 | 1 | 140 | 79.6 | active |
| Amh | 1 | 94.1 | 57.8 | inactive |
| Amh | 2 | 20 | 26.2 | inactive |
| Amh | 3 | 59.7 | 53.3 | inactive |
| Or2g7 | 1 | 101 | 52.5 | inactive |
| Or2g7 | 2 | 110 | 49.7 | inactive |
| Or2g7 | 3 | 68.5 | 95 | inactive |
| Eif3i | 1 | 77.8 | 80.7 | inactive |
| Eif3i | 2 | 69.7 | 69.6 | inactive |
| Eif3i | 3 | 137 | 132 | active |
| Vsig4 | 1 | 95.6 | 86.1 | inactive |
| Vsig4 | 2 | 103 | 77.9 | inactive |
| Vsig4 | 3 | 148 | 133 | active |
| Dio1 | 1 | 61.4 | 77.1 | inactive |
| Dio1 | 2 | 53.8 | 44.4 | inactive |
| Dio1 | 3 | 99.3 | 81.2 | inactive |
| Tspan32 | 1 | 80.5 | 73.4 | inactive |
| Tspan32 | 2 | 85.8 | 77 | inactive |
| Tspan32 | 3 | 80.5 | 86.7 | inactive |
| Tst | 1 | 99.6 | 102 | inactive |
| Tst | 2 | 50.3 | 41.1 | inactive |
| Tst | 3 | 91.8 | 106 | inactive |
| Ssr2 | 1 | 52.8 | 49.4 | inactive |
| Ssr2 | 2 | 59.5 | 64.1 | inactive |
| Ssr2 | 3 | 36.8 | 63.9 | inactive |
| Nenf | 1 | 17.2 | 53.4 | inactive |
| Nenf | 2 | 106 | 60.4 | inactive |
| Nenf | 3 | 60.6 | 47.1 | inactive |
